According to the supplement of paper PMC10849652:
The list shows a part of the results.

Amino acid sequences for entries named in this document (tags omitted). A change or cut given only in a name is not applied to a line headed by its entry.
UniProt P51114, whole entry, looked up: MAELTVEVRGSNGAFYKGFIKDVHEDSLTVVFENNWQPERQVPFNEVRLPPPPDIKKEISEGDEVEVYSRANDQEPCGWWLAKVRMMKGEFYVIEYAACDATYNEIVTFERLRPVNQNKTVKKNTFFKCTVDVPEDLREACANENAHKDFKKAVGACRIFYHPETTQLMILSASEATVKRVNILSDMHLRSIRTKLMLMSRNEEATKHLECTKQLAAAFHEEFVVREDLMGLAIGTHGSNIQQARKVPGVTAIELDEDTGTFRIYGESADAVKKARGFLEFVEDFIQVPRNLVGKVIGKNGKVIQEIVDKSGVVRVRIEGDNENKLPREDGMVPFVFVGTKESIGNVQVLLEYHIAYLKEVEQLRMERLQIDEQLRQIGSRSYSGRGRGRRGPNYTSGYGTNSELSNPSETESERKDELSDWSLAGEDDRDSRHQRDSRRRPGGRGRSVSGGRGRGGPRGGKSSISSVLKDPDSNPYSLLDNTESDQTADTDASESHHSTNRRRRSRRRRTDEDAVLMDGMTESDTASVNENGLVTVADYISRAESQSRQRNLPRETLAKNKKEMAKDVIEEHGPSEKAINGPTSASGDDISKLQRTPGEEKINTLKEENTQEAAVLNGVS
UniProt Q13283, whole entry, looked up: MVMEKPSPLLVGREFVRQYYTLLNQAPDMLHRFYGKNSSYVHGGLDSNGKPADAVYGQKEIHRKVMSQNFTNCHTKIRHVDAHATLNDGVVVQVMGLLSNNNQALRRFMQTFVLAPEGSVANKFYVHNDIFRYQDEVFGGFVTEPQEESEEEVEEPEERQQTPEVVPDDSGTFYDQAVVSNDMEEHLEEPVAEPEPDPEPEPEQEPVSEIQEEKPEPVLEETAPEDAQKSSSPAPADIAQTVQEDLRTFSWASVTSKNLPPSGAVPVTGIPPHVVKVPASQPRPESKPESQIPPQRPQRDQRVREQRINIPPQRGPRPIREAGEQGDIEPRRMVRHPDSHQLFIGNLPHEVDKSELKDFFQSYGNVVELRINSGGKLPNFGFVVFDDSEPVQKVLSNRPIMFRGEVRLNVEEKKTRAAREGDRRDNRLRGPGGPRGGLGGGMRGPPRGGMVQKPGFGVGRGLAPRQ
UniProt O75600: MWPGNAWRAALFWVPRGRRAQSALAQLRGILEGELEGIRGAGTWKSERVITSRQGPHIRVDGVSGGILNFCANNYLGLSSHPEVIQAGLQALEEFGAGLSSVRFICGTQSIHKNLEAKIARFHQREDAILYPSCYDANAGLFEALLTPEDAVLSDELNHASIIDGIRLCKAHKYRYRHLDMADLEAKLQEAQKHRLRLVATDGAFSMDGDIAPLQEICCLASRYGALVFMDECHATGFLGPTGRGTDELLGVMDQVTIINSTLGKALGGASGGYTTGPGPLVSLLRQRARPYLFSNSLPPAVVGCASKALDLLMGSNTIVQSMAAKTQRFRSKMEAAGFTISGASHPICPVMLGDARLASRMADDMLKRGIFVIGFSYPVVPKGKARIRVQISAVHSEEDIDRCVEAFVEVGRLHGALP
UniProt Q9NY12: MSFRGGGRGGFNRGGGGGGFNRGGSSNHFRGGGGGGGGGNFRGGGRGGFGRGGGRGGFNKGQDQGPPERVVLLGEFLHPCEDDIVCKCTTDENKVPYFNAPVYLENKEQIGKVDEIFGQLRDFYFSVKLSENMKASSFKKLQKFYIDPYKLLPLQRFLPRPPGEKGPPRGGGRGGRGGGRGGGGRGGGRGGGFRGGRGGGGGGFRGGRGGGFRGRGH
UniProt P23434: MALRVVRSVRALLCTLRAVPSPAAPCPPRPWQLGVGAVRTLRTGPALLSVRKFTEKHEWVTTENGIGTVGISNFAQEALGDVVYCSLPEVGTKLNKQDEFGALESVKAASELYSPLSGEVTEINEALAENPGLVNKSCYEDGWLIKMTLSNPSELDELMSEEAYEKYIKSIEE
UniProt Q14697: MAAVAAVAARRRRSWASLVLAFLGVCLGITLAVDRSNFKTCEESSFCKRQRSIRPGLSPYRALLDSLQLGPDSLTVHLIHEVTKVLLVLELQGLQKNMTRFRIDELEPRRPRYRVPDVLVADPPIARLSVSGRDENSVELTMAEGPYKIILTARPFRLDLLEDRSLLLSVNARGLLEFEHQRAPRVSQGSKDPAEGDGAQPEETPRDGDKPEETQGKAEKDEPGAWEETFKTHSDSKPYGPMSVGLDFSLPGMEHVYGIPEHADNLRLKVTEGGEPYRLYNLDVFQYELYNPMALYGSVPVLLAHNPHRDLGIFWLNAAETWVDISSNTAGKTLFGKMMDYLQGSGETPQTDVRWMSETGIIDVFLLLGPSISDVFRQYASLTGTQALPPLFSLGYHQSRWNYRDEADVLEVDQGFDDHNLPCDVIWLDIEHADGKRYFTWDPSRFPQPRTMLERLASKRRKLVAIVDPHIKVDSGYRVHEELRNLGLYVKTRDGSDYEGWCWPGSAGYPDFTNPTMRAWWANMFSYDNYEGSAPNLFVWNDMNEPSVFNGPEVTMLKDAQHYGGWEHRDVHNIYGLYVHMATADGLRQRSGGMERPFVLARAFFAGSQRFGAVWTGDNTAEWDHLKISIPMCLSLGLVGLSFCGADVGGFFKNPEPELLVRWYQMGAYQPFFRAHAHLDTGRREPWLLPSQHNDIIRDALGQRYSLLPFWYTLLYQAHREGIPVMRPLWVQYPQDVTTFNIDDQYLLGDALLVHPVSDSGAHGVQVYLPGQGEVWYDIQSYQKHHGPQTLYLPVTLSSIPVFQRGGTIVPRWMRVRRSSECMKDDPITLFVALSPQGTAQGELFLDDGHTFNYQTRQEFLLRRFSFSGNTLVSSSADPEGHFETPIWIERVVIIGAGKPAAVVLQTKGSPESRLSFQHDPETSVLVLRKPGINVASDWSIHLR
UniProt Q9UET6: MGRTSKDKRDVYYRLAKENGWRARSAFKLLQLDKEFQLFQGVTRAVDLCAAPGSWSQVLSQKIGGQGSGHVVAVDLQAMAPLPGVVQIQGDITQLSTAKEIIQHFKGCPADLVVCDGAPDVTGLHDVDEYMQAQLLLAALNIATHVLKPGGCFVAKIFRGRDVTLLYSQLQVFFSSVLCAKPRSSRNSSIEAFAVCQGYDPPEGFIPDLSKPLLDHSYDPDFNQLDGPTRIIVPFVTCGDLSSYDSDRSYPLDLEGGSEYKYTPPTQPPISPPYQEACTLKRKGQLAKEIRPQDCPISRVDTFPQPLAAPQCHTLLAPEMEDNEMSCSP
UniProt O14976: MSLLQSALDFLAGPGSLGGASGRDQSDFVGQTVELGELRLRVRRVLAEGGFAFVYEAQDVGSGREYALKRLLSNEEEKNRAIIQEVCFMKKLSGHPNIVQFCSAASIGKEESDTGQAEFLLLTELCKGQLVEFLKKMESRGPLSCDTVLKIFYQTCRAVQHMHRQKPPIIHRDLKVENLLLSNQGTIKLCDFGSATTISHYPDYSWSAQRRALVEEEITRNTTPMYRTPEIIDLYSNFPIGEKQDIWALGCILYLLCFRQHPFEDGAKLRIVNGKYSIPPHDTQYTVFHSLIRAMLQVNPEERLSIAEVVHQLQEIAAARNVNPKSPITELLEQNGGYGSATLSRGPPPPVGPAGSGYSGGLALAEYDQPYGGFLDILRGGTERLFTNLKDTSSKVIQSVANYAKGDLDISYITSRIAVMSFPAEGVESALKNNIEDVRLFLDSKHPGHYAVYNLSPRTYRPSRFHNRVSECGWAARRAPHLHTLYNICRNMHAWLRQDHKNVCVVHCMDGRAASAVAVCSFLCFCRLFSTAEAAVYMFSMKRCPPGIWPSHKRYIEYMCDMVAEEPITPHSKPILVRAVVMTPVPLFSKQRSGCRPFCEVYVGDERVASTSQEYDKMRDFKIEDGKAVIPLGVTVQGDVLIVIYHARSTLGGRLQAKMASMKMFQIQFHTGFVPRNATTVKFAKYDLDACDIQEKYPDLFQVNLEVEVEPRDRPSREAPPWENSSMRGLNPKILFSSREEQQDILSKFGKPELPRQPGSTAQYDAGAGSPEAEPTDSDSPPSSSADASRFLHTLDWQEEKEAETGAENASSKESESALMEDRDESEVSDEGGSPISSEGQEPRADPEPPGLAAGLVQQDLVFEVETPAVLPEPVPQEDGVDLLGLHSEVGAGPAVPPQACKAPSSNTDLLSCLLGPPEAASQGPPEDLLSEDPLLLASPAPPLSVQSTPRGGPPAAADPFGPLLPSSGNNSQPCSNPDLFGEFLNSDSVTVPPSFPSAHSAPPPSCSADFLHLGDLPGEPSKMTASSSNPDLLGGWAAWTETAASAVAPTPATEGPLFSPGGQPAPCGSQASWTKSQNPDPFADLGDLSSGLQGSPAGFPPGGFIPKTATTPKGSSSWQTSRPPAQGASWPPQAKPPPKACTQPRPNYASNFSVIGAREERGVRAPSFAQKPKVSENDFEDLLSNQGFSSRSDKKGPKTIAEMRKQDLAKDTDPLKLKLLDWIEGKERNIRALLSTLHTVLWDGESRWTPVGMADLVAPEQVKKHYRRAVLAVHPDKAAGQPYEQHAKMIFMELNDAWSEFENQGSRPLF
UniProt P30047: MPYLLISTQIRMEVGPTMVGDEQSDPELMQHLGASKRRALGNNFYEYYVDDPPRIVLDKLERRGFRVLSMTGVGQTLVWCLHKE
UniProt Q96CN9: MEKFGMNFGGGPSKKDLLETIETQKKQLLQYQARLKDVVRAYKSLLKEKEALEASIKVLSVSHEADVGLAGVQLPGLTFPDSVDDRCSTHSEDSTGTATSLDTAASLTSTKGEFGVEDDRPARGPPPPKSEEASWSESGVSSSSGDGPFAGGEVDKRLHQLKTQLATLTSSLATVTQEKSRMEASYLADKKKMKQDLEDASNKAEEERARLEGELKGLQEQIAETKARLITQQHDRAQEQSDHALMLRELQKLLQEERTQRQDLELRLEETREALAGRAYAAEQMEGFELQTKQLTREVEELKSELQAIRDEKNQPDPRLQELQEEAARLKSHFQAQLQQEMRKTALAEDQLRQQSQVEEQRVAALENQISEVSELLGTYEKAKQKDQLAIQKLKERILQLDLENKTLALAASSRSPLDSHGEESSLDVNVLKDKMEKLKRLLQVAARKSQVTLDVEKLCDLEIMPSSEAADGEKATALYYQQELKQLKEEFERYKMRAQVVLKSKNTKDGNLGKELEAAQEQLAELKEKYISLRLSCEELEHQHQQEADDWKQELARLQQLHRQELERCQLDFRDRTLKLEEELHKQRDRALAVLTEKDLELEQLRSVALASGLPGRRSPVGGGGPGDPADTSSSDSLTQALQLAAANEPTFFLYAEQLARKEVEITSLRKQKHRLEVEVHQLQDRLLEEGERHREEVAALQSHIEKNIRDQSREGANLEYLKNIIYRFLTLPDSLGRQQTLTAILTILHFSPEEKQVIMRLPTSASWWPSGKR
UniProt O95166, whole entry, looked up: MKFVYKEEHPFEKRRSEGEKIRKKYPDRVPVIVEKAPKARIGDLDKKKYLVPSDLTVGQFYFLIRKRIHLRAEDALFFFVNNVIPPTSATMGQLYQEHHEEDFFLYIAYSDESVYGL
UniProt P34059: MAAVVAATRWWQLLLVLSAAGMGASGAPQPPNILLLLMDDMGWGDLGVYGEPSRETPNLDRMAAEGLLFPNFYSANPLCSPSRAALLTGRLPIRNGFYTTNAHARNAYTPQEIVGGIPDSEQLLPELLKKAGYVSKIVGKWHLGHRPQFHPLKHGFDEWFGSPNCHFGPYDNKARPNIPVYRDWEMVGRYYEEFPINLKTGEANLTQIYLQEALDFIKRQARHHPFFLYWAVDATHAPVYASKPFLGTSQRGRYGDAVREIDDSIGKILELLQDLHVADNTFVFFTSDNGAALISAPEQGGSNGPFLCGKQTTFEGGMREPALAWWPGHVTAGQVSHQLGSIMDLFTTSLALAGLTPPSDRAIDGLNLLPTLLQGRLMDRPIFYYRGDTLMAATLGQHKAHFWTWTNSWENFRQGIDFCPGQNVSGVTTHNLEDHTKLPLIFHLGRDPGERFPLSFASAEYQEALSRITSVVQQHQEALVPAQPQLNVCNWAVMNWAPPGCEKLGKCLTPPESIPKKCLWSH
UniProt O14893: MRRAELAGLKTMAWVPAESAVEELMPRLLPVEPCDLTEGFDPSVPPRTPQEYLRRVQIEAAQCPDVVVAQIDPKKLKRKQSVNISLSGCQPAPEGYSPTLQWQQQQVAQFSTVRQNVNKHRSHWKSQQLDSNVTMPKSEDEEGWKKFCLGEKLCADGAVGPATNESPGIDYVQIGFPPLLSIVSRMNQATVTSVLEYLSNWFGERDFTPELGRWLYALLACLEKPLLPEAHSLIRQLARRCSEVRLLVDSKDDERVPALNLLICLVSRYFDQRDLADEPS
UniProt P55789: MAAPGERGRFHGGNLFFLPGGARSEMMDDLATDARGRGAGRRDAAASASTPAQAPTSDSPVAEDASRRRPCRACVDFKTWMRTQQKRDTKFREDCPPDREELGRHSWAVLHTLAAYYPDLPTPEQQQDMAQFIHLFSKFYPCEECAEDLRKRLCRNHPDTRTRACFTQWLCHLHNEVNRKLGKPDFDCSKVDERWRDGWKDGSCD

Key:
Assay in all cases: log2 fold change, soluble protein after heating vs DMSO (PISA); higher = thermal stabilisation; K562 lysate, 10 uM; active = over 0.2 and 3.5 SD of the protein, either way, in both replicates (recomputed)
erlotinib = compound: C#Cc1cccc(Nc2ncnc3cc(OCCOC)c(OCCOC)cc23)c1 [erlotinib]
How it was run: (§1)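 Dounce homogenisation of K562 pellets in PBS pH 7.4 with 1 mM MgCl2 produced a crude extract, used at 1 mg/mL protein. Exposure to 10 μM compound lasted 30 min, and aliquots were then heated for 3 min across 48°C-58°C, pooled and brought to 0.5% NP-40 at 4°C. The supernatant after 21,000xg for 90 min was quantified by TMTpro 16plex LC-MS/MS with channel sums equalised. Duplicate values are given as log-two fold change in thermal stability relative to solvent controls.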

[1] = compound: C/C(=N\NC(=O)C1=CC(=CC=C1)S(=O)(=O)N2CCOCC2)/C3=C(C=CC(=C3)Cl)O
How it was run: as §1

[2] = compound: C1=CC(=CC=C1C2=NC3=C(N2)C=C(C=C3)C(=O)N)OC4=CC=C(C=C4)Cl
How it was run: as §1

[3] = compound: C1=CC2=C(C=CC(=C2)/C=C\3/C(=O)NC(=NCC4=CC=CS4)S3)N=C1
How it was run: as §1

[4] = compound: C1=CC2=NC=CN=C2C=C1/C=C/3\C(=O)NC(=O)S3
How it was run: as §1

[5] = compound: C1=CC=C(C=C1)C2=NC(=C(N2)C3=CC=NC=C3)C4=CC(=C(C=C4)Cl)O
How it was run: as §1

[6] = compound: C1=CC=C2C(=C1)C3=NNC4=CC=CC(=C43)C2=O
How it was run: as §1

[7] = compound: C1CCN(C1)C(=O)NC2=CC=CC(=C2)NC3=NC=C(C(=N3)NCCC4=CN=CN4)Br
How it was run: as §1

[8] = compound: C1CN(CCC1(CC2=CC=C(C=C2)Cl)N)C3=NC=NC4=C3C=CN4
How it was run: as §1

IRAK-1-4 Inhibitor I = compound: C1COCCN1CCN2C3=CC=CC=C3N=C2NC(=O)C4=CC(=CC=C4)[N+](=O)[O-] [IRAK-1-4 Inhibitor I]
How it was run: as §1

ibrutinib = compound: C=CC(=O)N1CCC[C@@H](n2nc(-c3ccc(Oc4ccccc4)cc3)c3c(N)ncnc32)C1 [ibrutinib]
How it was run: as §1

[9] = compound: CC(=O)c1cnc2ccc(-c3cc(Cl)c(O)c(Cl)c3)nc2c1N[C@H]1CC[C@H](CN(C)C)CC1
How it was run: as §1

ralimetinib = compound: CC(C)(C)Cn1c(N)nc2ccc(-c3[nH]c(C(C)(C)C)nc3-c3ccc(F)cc3)nc21 [ralimetinib]
How it was run: as §1

[10] = compound: CC(C)(O)CC(=O)NCCn1ccc2ncnc(Nc3ccc(Oc4cccc(C(F)(F)F)c4)c(Cl)c3)c21
How it was run: as §1

[11] = compound: CC(C)C1=C2N=C(C=C(N2N=C1)NCC3=CC=CC=C3)NCCCCCCN
How it was run: as §1

[12] = compound: CC1=C(C(CC(=O)N1)C2=CC=C(C=C2)C(F)(F)F)C(=O)NC3=C(C=C4C(=C3)C=NN4)F
How it was run: as §1

[13] = compound: CC1=C(C2=C(C=C1)C(=O)C3=CC=CC=C3N2CCCN)C
How it was run: as §1

[14] = compound: CC1=C(C=C(C=C1)NC(=O)C2=CC(=CC=C2)C(C)(C)C#N)NC3=CC4=C(C=C3)N=CN(C4=O)C
How it was run: as §1

[15] = compound: CC1=C(C=C(C=C1)NC(=O)C2=CC(=CC=C2)N(C)C)NC(=O)C3=CC=C(C=C3)O
How it was run: as §1

[16] = compound: CC1=CC=C(C=C1)SC2=C3C=C(SC3=CN=C2)C(=O)N
How it was run: as §1

Measured: log2 fold change

FXR1 (UniProt P51114)
inactive: erlotinib 0.041 | [1] 0.012 | [2] -0.039 | [3] -0.011 | [4] -0.024 | [5] 0.002 | [6] -0.082 | [7] -0.015 | [8] -0.008 | IRAK-1-4 Inhibitor I -0.057 | ibrutinib 0.023 | [9] -0.011 | ralimetinib -0.017 | [10] 0.032 | [11] 0.002 | [12] 0.014 | [13] -0.006 | [14] -0.01 | [15] 0.02 | [16] 0.016

G3BP1 (UniProt Q13283)
inactive: erlotinib -0.026 | [1] -0.094 | [2] -0.001 | [3] 0.003 | [4] -0.002 | [5] -0.022 | [6] 0.003 | [7] -0.008 | [8] -0.031 | IRAK-1-4 Inhibitor I -0.02 | ibrutinib -0.004 | [9] -0.003 | ralimetinib 0.03 | [10] -0.01 | [11] -0.024 | [12] 0.018 | [13] 0.032 | [14] -0.045 | [15] 0.002 | [16] 0.007

GCAT isoform 2 (UniProt O75600)
inactive: erlotinib -0.031 | [1] 0.042 | [2] -0.01 | [3] 0.03 | [4] -0.002 | [5] -0.002 | [6] 0.006 | [7] 0.005 | [8] 0.034 | IRAK-1-4 Inhibitor I 0.04 | ibrutinib 0.021 | [9] 0.019 | ralimetinib 0.003 | [10] -0.041 | [11] 0.026 | [12] 0.025 | [13] -0.042 | [14] -0.022 | [15] 0.044 | [16] -0.002

FSCN1 (UniProt Q16658)
inactive: erlotinib -0.004 | [1] 0.003 | [2] 0.026 | [3] -0.009 | [4] -0.001 | [5] 0.004 | [6] 0.037 | [7] 0.023 | [8] -0.023 | IRAK-1-4 Inhibitor I 0.005 | ibrutinib -0.001 | [9] 0.025 | ralimetinib -0.026 | [10] -0.007 | [11] -0.015 | [12] -0.024 | [13] 0.021 | [14] -0.001 | [15] 0.007 | [16] 0.01

Random excerpt: two entries already listed.
FXR1 (UniProt P51114)
inactive: erlotinib 0.041 | [1] 0.012 | [2] -0.039 | [3] -0.011 | [4] -0.024 | [5] 0.002 | [6] -0.082 | [7] -0.015 | [8] -0.008 | IRAK-1-4 Inhibitor I -0.057 | ibrutinib 0.023 | [9] -0.011 | ralimetinib -0.017 | [10] 0.032 | [11] 0.002 | [12] 0.014 | [13] -0.006 | [14] -0.01 | [15] 0.02 | [16] 0.016

G3BP1 (UniProt Q13283)
inactive: erlotinib -0.026 | [1] -0.094 | [2] -0.001 | [3] 0.003 | [4] -0.002 | [5] -0.022 | [6] 0.003 | [7] -0.008 | [8] -0.031 | IRAK-1-4 Inhibitor I -0.02 | ibrutinib -0.004 | [9] -0.003 | ralimetinib 0.03 | [10] -0.01 | [11] -0.024 | [12] 0.018 | [13] 0.032 | [14] -0.045 | [15] 0.002 | [16] 0.007

Further records.

GAR1 (UniProt Q9NY12)
inactive: erlotinib 0.02 | [1] -0.05 | [2] 0 | [3] -0.014 | [4] 0.034 | [5] 0.038 | [6] -0.014 | [7] -0.001 | [8] -0.011 | IRAK-1-4 Inhibitor I 0.006 | ibrutinib 0 | [9] -0.006 | ralimetinib -0.015 | [10] -0.043 | [11] 0.012 | [12] 0.016 | [13] -0.031 | [14] 0.004 | [15] 0.014 | [16] 0.019

GCSH (UniProt P23434)
inactive: erlotinib -0.002 | [1] -0.124 | [2] 0.018 | [3] 0.029 | [4] 0.096 | [5] 0.019 | [6] 0.044 | [7] -0.035 | [8] 0.078 | IRAK-1-4 Inhibitor I -0.017 | ibrutinib 0.047 | [9] 0.004 | ralimetinib 0.014 | [10] -0.081 | [11] 0.039 | [12] -0.023 | [13] -0.013 | [14] -0.008 | [15] 0.032 | [16] -0.06

GANAB isoform 2 (UniProt Q14697)
inactive: erlotinib 0.022 | [1] 0.005 | [2] 0 | [3] -0.006 | [4] -0.012 | [5] -0.012 | [6] -0.019 | [7] -0.002 | [8] -0.001 | IRAK-1-4 Inhibitor I -0.011 | ibrutinib -0.029 | [9] -0.003 | ralimetinib 0.002 | [10] 0.002 | [11] -0.016 | [12] 0.001 | [13] -0.009 | [14] -0.015 | [15] 0.01 | [16] 0.006

FTSJ1 (UniProt Q9UET6)
inactive: erlotinib -0.008 | [1] 0 | [2] 0.039 | [3] 0.005 | [4] -0.025 | [5] 0.07 | [6] 0.034 | [7] -0.007 | [8] 0.016 | IRAK-1-4 Inhibitor I 0.019 | ibrutinib 0.004 | [9] -0.006 | ralimetinib -0.03 | [10] 0.094 | [11] -0.054 | [12] 0.011 | [13] 0.069 | [14] -0.024 | [15] 0.062 | [16] 0.03

GAK (UniProt O14976)
inactive: erlotinib 0.323 | [1] -0.227 | [2] -0.063 | [3] 0.245 | [4] 0.006 | [5] 0.438 | [6] 0.356 | [7] 0.172 | [8] -0.174 | IRAK-1-4 Inhibitor I 0.317 | ibrutinib -0.055 | [9] 0.367 | ralimetinib 0.666 | [10] -0.065 | [11] -0.019 | [12] -0.108 | [13] -0.056 | [14] 0.14 | [15] -0.049 | [16] 0.141

GAA (UniProt P10253)
inactive: erlotinib 0.077 | [1] 0.046 | [2] 0.054 | [3] -0.041 | [4] -0.005 | [5] 0.006 | [6] -0.208 | [7] 0.007 | [8] 0.092 | IRAK-1-4 Inhibitor I 0.025 | ibrutinib 0.013 | [9] -0.011 | ralimetinib 0.054 | [10] -0.133 | [11] 0.009 | [12] 0.142 | [14] 0.028 | [15] 0.036 | [16] -0.084

GCHFR (UniProt P30047)
inactive: erlotinib 0.005 | [1] 0.112 | [2] -0.039 | [3] -0.159 | [4] -0.062 | [5] -0.001 | [6] -0.003 | [7] 0.062 | [8] 0.007 | IRAK-1-4 Inhibitor I 0.155 | ibrutinib 0.057 | [9] -0.053 | ralimetinib -0.031 | [10] -0.032 | [11] 0.016 | [12] 0.029 | [13] -0.07 | [14] 0.087 | [15] -0.04 | [16] -0.07

GCC1 (UniProt Q96CN9)
inactive: erlotinib -0.007 | [1] 0.067 | [2] 0.033 | [3] -0.08 | [4] 0.039 | [5] -0.013 | [6] -0.043 | [7] 0.071 | [8] -0.025 | IRAK-1-4 Inhibitor I -0.004 | ibrutinib -0.017 | [9] 0.004 | ralimetinib 0.019 | [10] -0.032 | [11] -0.013 | [12] -0.026 | [13] 0.028 | [14] 0.034 | [15] 0.004 | [16] -0.031

GABARAP (UniProt O95166)
inactive: erlotinib 0.019 | [1] 0.06 | [2] 0.006 | [3] 0.091 | [4] -0.119 | [5] 0.04 | [6] -0.033 | [7] 0.048 | [8] 0.016 | IRAK-1-4 Inhibitor I 0.006 | ibrutinib 0.099 | [9] -0.006 | ralimetinib 0.038 | [10] 0.089 | [11] -0.015 | [12] -0.049 | [13] -0.013 | [14] -0.012 | [15] -0.021 | [16] 0

GALNS (UniProt P34059)
inactive: erlotinib -0.024 | [1] 0.011 | [2] 0.013 | [3] 0.052 | [4] 0.042 | [5] 0.019 | [6] -0.02 | [7] -0.018 | [8] 0.031 | IRAK-1-4 Inhibitor I 0.007 | ibrutinib 0.033 | [9] 0.015 | ralimetinib 0.013 | [10] -0.015 | [11] 0 | [12] -0.007 | [13] 0.021 | [14] 0.011 | [15] 0.02 | [16] -0.012

GEMIN2 (UniProt O14893)
inactive: erlotinib 0.032 | [1] 0.047 | [2] -0.001 | [3] 0.053 | [4] 0.028 | [5] 0.015 | [6] -0.11 | [7] -0.007 | [8] 0.011 | IRAK-1-4 Inhibitor I 0.05 | ibrutinib -0.044 | [9] 0.016 | ralimetinib 0 | [10] -0.11 | [11] 0.033 | [12] -0.014 | [13] -0.025 | [14] -0.045 | [15] 0.006 | [16] 0.026

GFER (UniProt P55789)
inactive: erlotinib 0.008 | [1] -0.143 | [2] 0.022 | [3] 0.101 | [4] -0.044 | [5] -0.028 | [6] 0.01 | [7] 0.032 | [8] -0.015 | IRAK-1-4 Inhibitor I 0.027 | ibrutinib -0.026 | [9] -0.016 | ralimetinib -0.005 | [10] -0.035 | [11] -0.079 | [12] -0.11 | [13] 0.015 | [14] 0.056 | [15] -0.064 | [16] 0.029
